Results published in PubChem BioAssay AID1347076 (National Center for Advancing Translational Sciences (NCATS), 2019).
Among all 400,000 compounds or so, about 13,000 (3.2%) were called active. Inconclusive means that the source gave no clear call. Such entries were picked first, then a sample of the others. Calls come from the whole dose curve; as a rule, active = well fitted cell-killing curve with a large enough effect; inconclusive = small, poorly fitted or top-dose-only effect, or effect the other way; inactive = flat fitted curve, though single readings scatter. Potencies beside an inconclusive call are fits to weak or partial responses and may not hold up.
% is set by controls: 0 for no effect and ±100 for the full control effect; potency is the fitted concentration of half-maximal effect.

Assay: qHTS assay for MDR1-selective chemotherapeutics: Primary screen using the drug-selected MDR subline cells KB-V1; note: nearly all actives have a fitted effect of over 60% in size
Conditions: KB-V1 MDR cells viability, CellTiter-Glo, 72 h; activity change, negative = cytotoxicity: at 46.1 µM (top of the series)
Procedure, shortened: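 Cytotoxicity toward P-gp-expressing KB-V1 cells was determined as loss of CellTiter-Glo luminescence after 72 h at 37 degrees C. Compounds were tested in quantitative HTS format across a concentration range, with curves fitted to normalized data.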
In the case of `COCCC(=O)N1CCC(Oc2ccc(C(=O)NCCc3ccccn3)cc2)CC1`, the Potency is reported as “inactive”.
For `Cc1noc(C)c1NC(=O)Nc1cccc2c1O[C@H](CN(C)C(=O)Nc1ccc3c(c1)OCO3)[C@@H](C)CN([C@H](C)CO)C2=O`, the Potency was “inactive”.
In the case of `COc1ccccc1NC(=O)c1ccc(-c2ccc(Br)cc2)o1`, the Potency is reported as active: 3.26 µM.
With `Cc1nc2ncnn2c(C)c1CCC(=O)NCc1ccc(Cl)cc1` the Potency was inconclusive: 29.1 µM [rising, single point].
For `COc1ccc(NC(=O)c2cc(=O)[nH]c3ccccc23)cc1`, the Potency was inconclusive: 8.2 µM [rising, partial curve, poor fit].
For `Cc1nn(CC(=O)N2CCC(N3CCCCC3)CC2)c(=O)c2c1sc1ccccc12`, the Potency was “inactive”.
For `COc1ccc(/C=C/C(=O)NC(=S)NCC2CCCO2)cc1` (centres undefined), the Potency was “inactive”.
For `CC(C)(C(=O)c1ccccc1)/[N+]([O-])=C/c1ccccc1F`, the Potency was inconclusive: 29.1 µM [cytotoxic, single point].
With `CCOC(=O)C1(CC2CCCCO2)CCN(Cc2ccc(OC)cc2F)CC1` (centres undefined) the Potency was inconclusive: 9.2 µM [cytotoxic, partial curve].
With `CCCCNc1c(-c2ccc(OC)c(SC3CCCCC3)c2)nc2cnccn12` the Potency was “inactive”.
With `N#CCC(=O)N/N=C/c1cn(Cc2ccc(Cl)cc2Cl)c2ccccc12` the Potency was “inactive”.
For `O=C(CN1CCN(S(=O)(=O)N2CCOCC2)CC1)Nc1cc(Cl)ccc1Cl`, the Potency was inconclusive: 5.8 µM [cytotoxic, partial curve].
For `CC1(C)Oc2ccc3ccc(=O)oc3c2/C(=C/Nc2ccc(O)cc2)C1=O`, the Potency was inconclusive: 20.6 µM [cytotoxic, single point].
In the case of `CN(C1CCCCC1)S(=O)(=O)c1ccc(NC(=S)NC(=O)c2cccs2)cc1`, the Potency is reported as inconclusive: 35.5 µM [cytotoxic, single point].
In the case of `O=C(NNC1=Nc2ccccc2SC1)c1ccc(Cl)cc1`, the Potency is reported as inconclusive: 2.91 µM [cytotoxic, full curve, poor fit].
With `Cn1c(NCc2cccnc2)nc2c1c(=O)n(Cc1ccccc1F)c(=O)n2C` the Potency was active: 14.6 µM.
With `COc1ccc(C(C)=O)cc1COc1cccc2c1OC(C)(C)C2` the Potency was inconclusive: 18.4 µM [cytotoxic, single point].
With `CC(C)c1nnc(SCC(=O)NC(C)(C)C)n1C` the Potency was inconclusive: 20.6 µM [rising, single point].
In the case of `Nc1nc2[nH]c(=S)[nH]c2c(=O)[nH]1`, the activity change, negative = cytotoxicity is reported as inconclusive: 50.3%.
With `COc1ccc(C(=O)NNC(=O)c2ccc3ccccc3n2)cc1` the Potency was inconclusive: 8.2 µM [cytotoxic, partial curve].
For `O=C(NCc1ccccc1)c1cc(C2COCCN2C(=O)c2ccccc2)on1` (centres undefined), the Potency was “inactive”.
In the case of `C/C(=C\C(=S)Nc1ccccc1)Nc1cccc2ccccc12`, the Potency is reported as “inactive”.
In the case of `CN(C(=O)CSc1nc2ccccc2c(=O)n1-c1ccc(F)cc1F)C1CCS(=O)(=O)C1` (centres undefined), the Potency is reported as “inactive”.
For `CC(C)CC(=O)Nc1nc2ccc(S(=O)(=O)N3CCOCC3)cc2s1`, the Potency was inconclusive: 4.61 µM [cytotoxic, full curve].
In the case of `COc1ccc(-c2[nH]ncc2CN(C)CCCN2CCOCC2)cc1F`, the Potency is reported as inconclusive: 23.1 µM [rising, single point].
In the case of `CCOc1ncc(S(=O)(=O)N2CCN(CC)CC2)cc1C(=O)O`, the Potency is reported as inconclusive: 29.1 µM [rising, single point].
For `Cc1ccc(C(=O)N2CCN(C)CC2)cc1[N+](=O)[O-]`, the Potency was inconclusive: 20.6 µM [rising, single point].
In the case of `CCN(CC)CCNc1ncnc2c1sc1nc(N3CCOCC3)c3c(c12)CCCC3`, the Potency is reported as inconclusive: 25.9 µM [cytotoxic, single point].
In the case of `NC(=O)c1ccccc1OCc1nnc(-c2ccccc2Br)o1`, the Potency is reported as active: 18.4 µM.
In the case of `C/C(=N\NC(=O)c1cc(-c2ccco2)nc2ccccc12)c1cccnc1`, the Potency is reported as “inactive”.
In the case of `CCOC(=O)[C@]12CCC=C1N(Cc1ccc(Cl)cc1Cl)C(=O)[C@H](CC(=O)NCc1cccc(C(F)(F)F)c1)C2`, the Potency is reported as active: 20.6 µM.
In the case of `CCC(C)NC(=O)CNC(=S)N(Cc1ccccc1)Cc1cccnc1` (centres undefined), the Potency is reported as inconclusive: 13 µM [cytotoxic, partial curve, poor fit].
With `CCOC(=O)C1CCCN(c2ncnc3c2cnn3-c2ccc(OC)cc2)C1` (centres undefined) the Potency was inconclusive: 9.2 µM [cytotoxic, partial curve].
For `O=C(NNC(=O)C1C2CCCCC21)c1coc(=O)c(Br)c1` (centres undefined), the Potency was “inactive”.
With `Cc1ccc(Cn2ncn(-c3ccccc3)c2=O)cc1` the Potency was inconclusive: 29.1 µM [cytotoxic, single point].
In the case of `Cc1ccccc1NS(=O)(=O)c1cc(C(=O)Nc2cccc([N+](=O)[O-])c2)ccc1C`, the Potency is reported as active: 11.6 µM.
With `CC(/C=N/Nc1nncc(=O)[nH]1)=C\c1ccccc1` the Potency was “inactive”.
In the case of `O=C(COC(=O)c1ccco1)NC12CC3CC(CC(C3)C1)C2`, the Potency is reported as inconclusive: 13 µM [rising, partial curve, poor fit].
With `COc1ccccc1N1CC(C(=O)OCC(=O)Nc2c(C)cccc2C)CC1=O` (centres undefined) the Potency was inconclusive: 18.4 µM [rising, partial curve, poor fit].
For `Cc1ccsc1/C=C/c1ccc2ccccc2n1`, the Potency was inconclusive: 18.4 µM [cytotoxic, single point].
For `CCN(CC)c1ccc2c(c1)OC(N)=C(C#N)C2c1cccnc1` (centres undefined), the Potency was active: 0.291 µM.
With `Cc1ncc(CO)c(/C=N/NC(=S)Nc2ccc(F)cc2)c1O` the Potency was “inactive”.
In the case of `N#Cc1ccc(C(=O)Nc2nc(-c3cccs3)c(C(=O)C(F)(F)F)s2)cc1`, the Potency is reported as active: 13 µM.
With `O=C(NCCCN1CCOCC1)c1cc(-c2ccccc2)on1` the Potency was inconclusive: 11.6 µM [cytotoxic, partial curve, poor fit].
For `COC(=O)[C@]1(C)N[C@H](CN(C)C(=O)c2ccc(C(C)(C)C)cc2)[C@@H]2C(=O)N(Cc3ccccc3)C(=O)[C@@H]21`, the Potency was inconclusive: 5.17 µM [rising, partial curve, poor fit].
In the case of `CCN(CCCNC(=O)C1CCC(=O)N1Cc1ccccc1Cl)c1cccc(C)c1` (centres undefined), the Potency is reported as active: 6.51 µM.
With `CCOC(=O)CN1C(=O)S/C(=C/c2ccc3c(c2)n(C)c(=O)n3C)C1=O` the Potency was “inactive”.
For `CCOC(=O)C1CCN(C(=O)c2ccc3c(c2)sc2nc(-c4ccc(OCC)cc4)cn23)CC1`, the Potency was inconclusive: 16.4 µM [cytotoxic, single point].
With `O=C(Nc1ccc(Cn2cccn2)cc1)c1ccc(COc2cccc(Br)c2)cc1` the Potency was active: 9.2 µM.
For `S=c1nc(-c2ccccc2)[nH]n1-c1ccccc1`, the Potency was inconclusive: 32.6 µM [cytotoxic, single point].
In the case of `Cc1ccc(NC(=S)NCCc2ccc(Cl)cc2)c(C)c1`, the Potency is reported as inconclusive: 29.1 µM [cytotoxic, single point].
For `COc1ccc(-c2cn(-c3ccc(C)cc3C)c(=O)[nH]2)cc1OC`, the Potency was “inactive”.
For `COc1ccc(CNC(=O)c2cnn(-c3ccc(C)cc3)c2C2CCN(C(=O)OC(C)(C)C)CC2)cc1`, the Potency was “inactive”.
In the case of `Cn1cc(Cl)c(-c2n[nH]c(=S)n2-c2ccccc2)n1`, the Potency is reported as “inactive”.
With `Cc1ccc(C(=O)NC(=S)NCCN2CCOCC2)cc1` the Potency was inconclusive: 18.4 µM [cytotoxic, partial curve].
For `Fc1ccccc1NC(=S)N1CCN(Cc2ccccc2)CC1`, the Potency was inconclusive: 29.1 µM [cytotoxic, single point].
With `CCOC(=O)C(=CNc1ccc(N2CCCCC2)c(S(=O)(=O)Nc2ccccc2OC)c1)C(=O)OCC` the Potency was inconclusive: 1.3 µM [cytotoxic, partial curve, poor fit].
For `CCCCN(CCCC)S(=O)(=O)c1ccc(NC(=O)c2c(-c3ccccc3)noc2C)cc1`, the Potency was inconclusive: 9.2 µM [cytotoxic, partial curve].
In the case of `S=C(Nc1cccc(Cl)c1)Nc1ccccc1Oc1ccccc1`, the Potency is reported as inconclusive: 29.1 µM [cytotoxic, single point].
With `Cc1ccc(NC(=O)CC2Sc3ccccc3NC2=O)c(C)c1` (centres undefined) the Potency was inconclusive: 25.9 µM [cytotoxic, single point].
For `Cc1noc(C)c1CSc1nnc(-c2ccccc2)o1`, the Potency was inconclusive: 29.1 µM [cytotoxic, single point].
With `COc1ccc2oc(=O)c(C(=O)Nc3cccc(C)c3)cc2c1` the Potency was “inactive”.
For `Cc1csc(NC(=O)/C=C/c2ccco2)n1`, the Potency was inconclusive: 29.1 µM [cytotoxic, single point].
With `CC(=O)c1cccc(OCC(O)CNCC2COc3ccccc3O2)c1` (centres undefined) the Potency was “inactive”.
For `CCN(C(=O)c1cc(S(=O)(=O)N2CCCCC2)c[nH]1)c1ccc(OC)cc1`, the Potency was “inactive”.
For `COc1cccc(CNC(C)C(=O)Nc2ccc3c(c2)OCCO3)c1` (centres undefined), the Potency was inconclusive: 18.4 µM [cytotoxic, single point].
With `COC(=O)C1(C(=O)OC)C/C=C\CCN(S(=O)(=O)c2ccccc2[N+](=O)[O-])CC1` the Potency was “inactive”.
With `CN1CCC(OC(=O)Cc2ccc(Cl)cc2)CC1` the Potency was inconclusive: 11.6 µM [rising, partial curve, poor fit].
For `CN(C)c1nc(N/N=C/c2ccccc2O)nc(Nc2ccc(F)cc2)n1`, the Potency was inconclusive: 5.17 µM [cytotoxic, full curve].
With `COc1ccc(CNC(=O)C(C)n2nc(C)c3c(C)n(-c4ccc(C)cc4)nc3c2=O)cc1` (centres undefined) the Potency was inconclusive: 4.61 µM [cytotoxic, full curve].
For `CC(C)C(NC(=O)c1ccc(Cl)cc1Cl)C(=O)NCCc1ccccn1` (centres undefined), the Potency was “inactive”.
In the case of `Cc1cc(C)cc(OCCOCCn2c(-c3ccc(Cl)cc3)nc3ccccc3c2=O)c1`, the Potency is reported as “inactive”.
For `CC(=O)CSc1nnc(C(F)(F)F)n1C`, the Potency was “inactive”.
In the case of `COc1ccc(-c2cc(-n3c(C(F)(F)F)nc4ccccc43)n(CCC#N)n2)cc1`, the Potency is reported as inconclusive: 20.6 µM [cytotoxic, single point].
